The text below walks through data of publication PMC3471833.

These are yes or no findings as the source states them, for the method shown. Binding can be weak; no strength is given.

The assay deals with T1, human complement C1 esterase inhibitor (human) (UniProt P05155).
T1 sequence: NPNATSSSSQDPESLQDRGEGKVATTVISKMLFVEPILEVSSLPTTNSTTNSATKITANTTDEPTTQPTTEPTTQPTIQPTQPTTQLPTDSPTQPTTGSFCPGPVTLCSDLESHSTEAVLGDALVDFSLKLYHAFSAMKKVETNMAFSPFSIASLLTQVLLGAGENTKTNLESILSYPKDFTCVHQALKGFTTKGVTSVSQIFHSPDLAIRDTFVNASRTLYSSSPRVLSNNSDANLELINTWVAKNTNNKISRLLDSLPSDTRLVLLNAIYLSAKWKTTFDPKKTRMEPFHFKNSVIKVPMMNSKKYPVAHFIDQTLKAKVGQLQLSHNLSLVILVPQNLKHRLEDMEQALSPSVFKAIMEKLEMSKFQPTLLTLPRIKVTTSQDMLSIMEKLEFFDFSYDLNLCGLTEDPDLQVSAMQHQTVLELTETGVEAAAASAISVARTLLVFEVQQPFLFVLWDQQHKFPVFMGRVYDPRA
Description: SPR; Biacore T200; biotinylated goat anti-human C1inh polyclonal antibody on a streptavidin chip captured C1inh (1 µM injected, about 30 RU); C1s 3.9-1000 nM in HBS-EP+ with 200 nM CSA, heparin or OSCS injected at 30 µL/min, 120 s association, 180 s dissociation; double referencing (GAG alone subtracted); both purified. (In SPR one partner is held on a chip, and binding of the other changes the refractive index at the surface.)

For Activated C1s (enzyme), the binding result was “binds”.
